Reference: PubChem BioAssay AID1508600 (Functional Genomics Laboratory (NCATS/FGL), 2020)
In all, about 53,000 sequences went through this assay and about 3,700 (7%) were called active.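 How the source made its calls: active means gene knockdowns whose robust z-score for IL-1 alpha signal is at least 2 or at most -2, so actives lie on both sides; inactive means the rest.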 The list shows a part of the results.

Experiment: Components of the Cytosolic LPS Sensing Pathway: Gene Identification via Genome-wide siRNA Screen;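 further: robust z of the log signal after scaling to non-targeting control siRNA wells of the plate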
Conditions: RAW264.7 macrophages, IL-1a HTRF, actives lie on both sides, screened at 100 nM (by protocol), cells primed 5 h with Pam3CSK4 first
How it was run: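 Supernatant IL-1a by HTRF from RAW264.7 cells primed with Pam3CSK4 (5 hours) and transfected with LipidA (24 hour) after 48h siRNA knockdown at 100 nM; cell viability checked with CellTiter-Glo.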

Sequence | z-score
CGAGGAUGCCCUAAGGGUUTT against Lrrtm3 | inactive: -0.106
CCAACAUCGAGCUAGCCACTT against Psma5 | active: -2.28
GGUAUUUAUUGACAGGUGATT against Sh2d1b1 | inactive: -0.836
GCUGUUCUAAUUCAUAAACTT against Ptrh2 | inactive: 0.359
GGUUGGUUCAGAUAAGUCCTT against Egflam | inactive: 0.854
GGCUCUACAUUCCAGAGGUTT against Slc35c2 | inactive: 0.202
GCCCGUGUGCCCAAGAAAATT against Pde6d | inactive: -1.3
GCUACUGCAGUAUACAUUGTT against Olfr869 | active: 2.21
GGUUCAUCAAACUUGCUUGTT against Olfr1312 | inactive: 0.569
GGGAAAGAGAAAUUUAAAGTT against Kcne4 | inactive: 1.3
GGAAGACGGCAACUAUCCATT against Cyp2c50 | inactive: 1.23
GCUUAUAAUGCCAUUACUUTT against Rad21 | inactive: -0.548
GGCCAGAUUACCAGCAAUATT against 1810009J06Rik | inactive: 0.34
GGUGUUUGGGAACAAGAUGTT against Eif2ak3 | inactive: -0.65
GGAAACACGUCUCCUCCAUTT against Krt87 | inactive: 1.26
GGUAUGAUGAAAAUACACATT against Mmp1a | active: 2.56
GGGCAUGUGAUAGAACAAUTT against Stoml1 | inactive: -0.701
GCCUAUGAUAAGUCUGUGUTT against Ifitm10 | active: -2.25
GGUUGGAAAUGAAAUCAAUTT against Erc2 | active: 2.36
GCCAAAGCCUAGAGCCAAUTT against Olfr410 | inactive: 0.597
GGUUUAUCACAACUACCGCTT against Tmem179 | inactive: 0.528
GGUGUACGUGAACAACUCCTT against Kcnmb4 | inactive: -1.58
GCUUUUACUGUACCUCUUCTT against Tmc4 | inactive: -1.05

Sequence | z-score
GGAGAACCUGUGUAAGAUUTT against Rffl | inactive: 1.94
GGCUCAGCAGCAGAAACAATT against Txndc9 | inactive: -0.809
GGCCAGAGAGGAGAACUAATT against Zfp202 | inactive: 1.77
GGGUUCCUCAGAGACUGAGTT against Esrra | inactive: 1.57
GGCGACACAAUAAGACAGATT against Wdr19 | inactive: 0.648
GGUGUUGUUCACGAGGACCTT against Nop56 | inactive: -0.259
CCUGUAGAUUCAAUUAGAGTT against Vkorc1l1 | inactive: -0.206
GGGUAUUGAAUCAGGCAUCTT against Olfr628 | inactive: 0.852
GGAGAACAUUGCUAAAUGUTT against Slc34a2 | inactive: -0.371
GGUCCCUAGCACUAUUUUUTT against Hes6 | inactive: 1.04
GGGCUUUCUCAGAAAAGAATT against Olfr508 | inactive: -1.29
GCCUGAAUUUUUGAGAACUTT against Ccdc88a | inactive: -0.841
GGUUCAGCUUAUGGUAACUTT against Vps13a | inactive: -1.38
GGGUCUGUAUCAGCUUGGUTT against Olfr1402 | inactive: 1.26
GGUAAAGCAGUACCUUUCUTT against Mitf | active: 2.53
GGAGGCAGCAGUUAUUGUGTT against Ly6a | inactive: -0.486
GGUUGUUAUAGAAGCUAAUTT against Wnt5a | inactive: 0.128
GCUAACCUUUGAGUUAGUGTT against Tbc1d12 | inactive: 0.833
GCCAUUUCAUUUCGGACUGTT against Dgkz | inactive: 0.422
GGAUAUCCUACAGUUCUGGTT against Krt5 | inactive: -0.342
GGUGUGCAGAAGAUCUUGCTT against Osbpl6 | inactive: 0.883
GAAGAUUGGAUUUAAAGCCTT against Olfr667 | inactive: -0.891
GGAUCAACGAGGAUCAAGATT against Engase | inactive: 0.927

Sequence | z-score
CGCAUCCGCUAGUAGCUUGTT against Fscn1 | inactive: 1.26
CCUCAUCAAUCAGCCUAUGTT against Olfr1178 | inactive: -1.83
GGCUUUUUGUUAAGGCAGCTT against Ap1ar | inactive: 1.59
CCGGAGUAACUCUCUAACATT against Apbb3 | inactive: -0.291
GGCUGACUGGACAAUAAAGTT against Krt85 | inactive: -1.28
GGCUUCACCAUUUUCAUAATT against P2rx5 | inactive: 0.0911
GCGAAGACUUCUUCUACAUTT against Lzts1 | inactive: -0.93
GGGAAACUUUGCCACCUUATT against Tspan4 | inactive: 1.24
CCCUUGCCUCAAAGAUCUUTT against Tex48 | inactive: 0.633
GCCUUUUUCAGACACUAAUTT against Ugt2b1 | inactive: -0.427
GGACGAGAAGAUUGUCUGCTT against Rassf9 | inactive: 1.27
GGACGAUGAACAUUGUCCCTT against Gpr19 | inactive: 0.402
GGGAUGUGCUUUCAGGCUGTT against AU040320 | inactive: 0.384
GCAUGCCUCCAAUAUGCUUTT against Vps35 | inactive: -0.302
GCCUUAACUAGUUUGUGUCTT against Shh | inactive: 0.315
CGAAACGGAAGGUGGAGGUTT against Kat5 | inactive: -1.41
GGAAAGAGAAAACUUUAGCTT against Nme7 | inactive: -0.131
GGAGAUGAUCUUCUGAAAUTT against Klra17 | inactive: 0.00645
UCCUGUCUGGUUCCUUUUUTT against Mettl7a1 | inactive: 0.097
GGUGGUUCUUUUAAAGUUUTT against Dlat | inactive: 0.794
GGACAUGGAGAACCUUUUUTT against Naxd | inactive: -1.78
GCUCUCAAAAGUCCUUAGCTT against Emsy | inactive: -1.9

Random excerpt: 6 entries already listed
Sequence | z-score
GGCUUCACCAUUUUCAUAATT against P2rx5 | inactive: 0.0911
GGACGAUGAACAUUGUCCCTT against Gpr19 | inactive: 0.402
GCUCUCAAAAGUCCUUAGCTT against Emsy | inactive: -1.9
GGACGAGAAGAUUGUCUGCTT against Rassf9 | inactive: 1.27
GGCUGACUGGACAAUAAAGTT against Krt85 | inactive: -1.28
GGGAAACUUUGCCACCUUATT against Tspan4 | inactive: 1.24
